# Changes are numbered by the printed parent chain. The list shows a part of the results. For some assays here: At the low end of the ranking the order means little.
# What was measured:
# Conditions in all cases: yeast three-hybrid, YBZ-1, SC-Leu-His + 0.5 mM 3-AT, 4 days
# [1] = target: T1, PUM1 PUF domain R4-FAA N971F + H972A + Q975A (Homo sapiens) (UniProt Q14671)
# T1 sequence: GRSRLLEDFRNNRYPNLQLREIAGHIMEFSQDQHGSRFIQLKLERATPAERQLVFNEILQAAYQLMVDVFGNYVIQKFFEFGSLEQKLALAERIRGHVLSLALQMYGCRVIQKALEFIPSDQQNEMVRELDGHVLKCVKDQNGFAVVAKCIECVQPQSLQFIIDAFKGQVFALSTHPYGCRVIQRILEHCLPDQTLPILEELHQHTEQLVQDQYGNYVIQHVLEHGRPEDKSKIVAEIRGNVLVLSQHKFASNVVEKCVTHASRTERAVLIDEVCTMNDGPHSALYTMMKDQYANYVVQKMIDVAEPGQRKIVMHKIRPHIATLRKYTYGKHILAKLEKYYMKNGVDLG
# [2] = target: T2, PUM1 PUF domain R4-FGR N971F + H972G + Q975R (Homo sapiens) (UniProt Q14671)
# T2 sequence: T1 sequence with A145G, A148R
# [3] = target: T3, PUM1 PUF domain R4-FNC N971F + H972N + Q975C (Homo sapiens) (UniProt Q14671)
# T3 sequence: T1 sequence with A145N, A148C
# [4] = target: T4, PUM1 PUF domain R4-FNG N971F + H972N + Q975G (UniProt Q14671)
# T4 sequence: T1 sequence with A145N, A148G
# [5] = target: T5, PUM1 PUF domain R4-GNL N971G + H972N + Q975L (Homo sapiens) (UniProt Q14671)
# T5 sequence: T1 sequence with F144G, A145N, A148L
# [6] = target: T6, PUM1 PUF domain R4-GNR N971G + H972N + Q975R (Homo sapiens) (UniProt Q14671)
# T6 sequence: T1 sequence with F144G, A145N, A148R
# [7] = target: T7, PUM1 PUF domain R4-GNT N971G + H972N + Q975T (Homo sapiens) (UniProt Q14671)
# T7 sequence: T1 sequence with F144G, A145N, A148T
# [8] = target: T8, PUM1 PUF domain R4-GNV N971G + H972N + Q975V (Homo sapiens) (UniProt Q14671)
# T8 sequence: T1 sequence with F144G, A145N, A148V
# [9] = target: T9, PUM1 PUF domain R4-GPR N971G + H972P + Q975R (Homo sapiens) (UniProt Q14671)
# T9 sequence: T1 sequence with F144G, A145P, A148R
# [10] = target: T10, PUM1 PUF domain R4-GQR N971G + H972Q + Q975R (UniProt Q14671)
# T10 sequence: T1 sequence with F144G, A145Q, A148R
# [11] = target: T11, PUM1 PUF domain R4-GRR N971G + H972R + Q975R (UniProt Q14671)
# T11 sequence: T1 sequence with F144G, A145R, A148R
# [12] = target: T12, PUM1 PUF domain R4-GSQ N971G + H972S (Homo sapiens) (UniProt Q14671)
# T12 sequence: T1 sequence with F144G, A145S, A148Q
# [13] = target: T13, PUM1 PUF domain R4-HNA N971H + H972N + Q975A (Homo sapiens) (UniProt Q14671)
# T13 sequence: T1 sequence with F144H, A145N
# [14] = target: T14, PUM1 PUF domain R4-HNL N971H + H972N + Q975L (Homo sapiens) (UniProt Q14671)
# T14 sequence: T1 sequence with F144H, A145N, A148L
# [15] = target: T15, PUM1 PUF domain R4-HRV N971H + H972R + Q975V (Homo sapiens) (UniProt Q14671)
# T15 sequence: T1 sequence with F144H, A145R, A148V
# [16] = target: T16, PUM1 PUF domain R4-KSQ N971K + H972S (Homo sapiens) (UniProt Q14671)
# T16 sequence: T1 sequence with F144K, A145S, A148Q
# [17] = target: T17, PUM1 PUF domain R4-LFW N971L + H972F + Q975W (Homo sapiens) (UniProt Q14671)
# T17 sequence: T1 sequence with F144L, A145F, A148W
# [18] = target: T18, PUM1 PUF domain R4-LHR N971L + Q975R (Homo sapiens) (UniProt Q14671)
# T18 sequence: T1 sequence with F144L, A145H, A148R
# [19] = target: T19, PUM1 PUF domain R4-MNG N971M + H972N + Q975G (Homo sapiens) (UniProt Q14671)
# T19 sequence: T1 sequence with F144M, A145N, A148G
# [20] = target: T20, PUM1 PUF domain R4-MNR N971M + H972N + Q975R (UniProt Q14671)
# T20 sequence: T1 sequence with F144M, A145N, A148R
sequence,measurement,setting,value
GGCUAGAACUAGUGGAUCCCCCGGCGCCCGGCGGCUCGAGCCCGGGUAAGUGUAAAUAGUCUGCAUGCCGCCGGGCGCCAUGCCUGCAGGUCGACUCUAGAAAACAUG,binding signal (log2 enrichment (interaction score)),[1],-0.17
same,binding signal (log2 enrichment (interaction score)),[2],-2.39
same,binding signal (log2 enrichment (interaction score)),[3],-1.49
same,binding signal (log2 enrichment (interaction score)),[4],< -7.65
same,binding signal (log2 enrichment (interaction score)),[5],-0.52
same,binding signal (log2 enrichment (interaction score)),[6],-0.45
same,binding signal (log2 enrichment (interaction score)),[7],-0.86
same,binding signal (log2 enrichment (interaction score)),[8],-2.49
same,binding signal (log2 enrichment (interaction score)),[9],-0.11
same,binding signal (log2 enrichment (interaction score)),[10],< -8.26
same,binding signal (log2 enrichment (interaction score)),[11],-7.37
same,binding signal (log2 enrichment (interaction score)),[12],-1.15
same,binding signal (log2 enrichment (interaction score)),[13],-0.48
same,binding signal (log2 enrichment (interaction score)),[14],0.04
same,binding signal (log2 enrichment (interaction score)),[15],-0.17
same,binding signal (log2 enrichment (interaction score)),[16],-1.07
same,binding signal (log2 enrichment (interaction score)),[17],0.4
same,binding signal (log2 enrichment (interaction score)),[18],0.5
same,binding signal (log2 enrichment (interaction score)),[19],-0.9
same,binding signal (log2 enrichment (interaction score)),[20],< -4.91

# No new results follow: entries from further up.
sequence,measurement,setting,value
GGCUAGAACUAGUGGAUCCCCCGGCGCCCGGCGGCUCGAGCCCGGGUAAGUGUAAAUAGUCUGCAUGCCGCCGGGCGCCAUGCCUGCAGGUCGACUCUAGAAAACAUG,binding signal (log2 enrichment (interaction score)),[3],-1.49
same,binding signal (log2 enrichment (interaction score)),[4],< -7.65
same,binding signal (log2 enrichment (interaction score)),[5],-0.52
same,binding signal (log2 enrichment (interaction score)),[6],-0.45

# Reference: PMC8384837
